From PubChem BioAssay AID1347423 (Functional Genomics Laboratory (NCATS/FGL), 2020)
Among all 52,000 sequences or so, about 210 (0.4%) were called active.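 Rule for the calls: active = gene whose silencing raises cell survival under the drug, median off-target-corrected z-score across its silencing RNAs 2 or more; inactive = the rest.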 The list shows a part of the results.

Assay: Resistance to Poly (ADP-Ribose) Polymerase inhibitor: Gene Identification via Genome-wide siRNA Screen
Settings: mouse BRCA2 R2336H ES cells, olaparib, CellTiter-Glo viability; hits give high values
Method in brief: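 Mouse BRCA2 R2336H ES cells were reverse-transfected with siRNA (20 nM final), treated at 48 h with 500 nM olaparib, and read by CellTiter-Glo after 72 h. Scores: MAD-based z per siRNA, median per gene, seed off-target correction.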
With GGAUUUUCUACUCUAAAGATT against Tnfrsf19 the z-score was inactive: -0.42. With GGAAUUUGGUUAAAUGGAATT against Dio2 the z-score was inactive: 0.00953. For “GGAACUCUGUGGGUGAGAATT against 5830472H07Rik”, the z-score was inactive: -0.148. With GGAGAUGCAGAAAAUGAAUTT against Prim1 the z-score was inactive: -1.42. With “GGCUCAUUUUGAAGCUAAGTT against D030060M11Rik” the z-score was inactive: -1.67. In the case of GCACAUUCAUAGGAGUACCTT against V1rf3, the z-score is reported as inactive: 1.11. For GGCCCAAAGUUUAUCCAAGTT against Rasl12, the z-score was inactive: -0.546. In the case of GGGCACACCCAUGAAGACATT against Tcf1, the z-score is reported as inactive: 0.312. In the case of GGAACUUUGCCAUCUCUCCTT against Insrr, the z-score is reported as inactive: 0.314. With GGAACAGCGGCUAACUUAUTT against Accn4 the z-score was inactive: -1.42. With GCCUCUAGUACAGACAACCTT against Rnf121 the z-score was inactive: 0.961. In the case of GGAAGUUUGCUAGAGUUAATT against Taf13, the z-score is reported as inactive: 2.18. For GGACAAUCCGUUCUUUCUGTT against Tgfb3, the z-score was inactive: 0.0777. In the case of GCACAGAGUUUUACCUUCUTT against Olfr811, the z-score is reported as inactive: -1.05. In the case of GGAAGAUAAAUGUCACAAATT against AA792892, the z-score is reported as inactive: 0.0744. For GACCAUAGAGAUUAUCGUGTT against Retnla, the z-score was inactive: 0.504. With GGAGUGUCUCAGUUCAGUGTT against Ppp3r1 the z-score was inactive: -1.6. With “GGAUGCACUGAGGAACUCATT against 9430023L20Rik” the z-score was inactive: -0.861. With CCCUCCUAUUAGCGCAUUUTT against Osbpl2 the z-score was inactive: -2.03. For GGAGACCUAAAAUGUCUUUTT against Klrb1d, the z-score was inactive: 0.522. For GCAAACUGUCCUAUCUUGGTT against Cacna1d, the z-score was inactive: 0.557. For GGUCAGAGGCCAACAUGGUTT against Oas1e, the z-score was inactive: -1.44. For GGUUUUGCAUCAACAGUGUTT against Msrb, the z-score was inactive: -0.548. In the case of “GCUCUAUUUGACCACCUCATT against 2610020H15Rik”, the z-score is reported as inactive: -0.378. With GGAAGUCAUCAAAGGCUUUTT against Fkbp1b the z-score was inactive: -1.22. With GGAGGUGAAGCUUCGAAUGTT against Slc25a10 the z-score was inactive: -2.94. With GGAGCUGAGGAAAAAGAUUTT against Uhrf1 the z-score was inactive: -2.64. With GGAUAAGAAGUCCAAGAACTT against Pknox2 the z-score was inactive: 0.469. In the case of “GGAAUAGACUUGGAAUCUATT against B930008I02Rik”, the z-score is reported as inactive: 0.384. For GGUCAUUAGGAACUACACUTT against Vav3, the z-score was inactive: 0.149. For GCUCAAAGUUUGAACUGGCTT against A2lp, the z-score was inactive: 1.13. For GGGUAUAUAAGCAGCACCATT against Rdh9, the z-score was inactive: -0.965. For GGCCUUUUCUCAAGGAGAATT against Cadps2, the z-score was inactive: -1.33. For GGGUUCUGGACAAGAUGAATT against Gpi1, the z-score was inactive: -2.3. In the case of CGGAAUUGGUGAUCUUUGUTT against Olfr1104, the z-score is reported as inactive: 0.294. In the case of GGUGCUGAUCCUUCAAAGGTT against BC031901, the z-score is reported as inactive: -0.614. With GGCAAGGACCCUGACCUAUTT against Ccr4 the z-score was inactive: 1.08. In the case of GGAGUAUGCUGUCAAAAUCTT against Mknk1, the z-score is reported as inactive: 0.77. In the case of CGCUGAAAUGGUGAAUAAATT against Recql, the z-score is reported as inactive: -1.13. In the case of CCGCACAAGAGGUAGAUACTT against Ddx5, the z-score is reported as inactive: -2.06. For GGACCAUCAGUACCAGUUUTT against Trim28, the z-score was inactive: 0.13. For GGCAAUACUGGAAGGGUGUTT against Eps15, the z-score was inactive: -0.568. With GGAAAAGAAAACAGGAGAUTT against Edn3 the z-score was inactive: 0.573. With GCGGCGGAUAGUGUCACAUTT against Gmip the z-score was inactive: -1.56. For GGAGGAGAUCCUUCAUUACTT against Psap, the z-score was inactive: 0.276. With CGUACACCGUAUUCAUGACTT against Rapgef5 the z-score was inactive: -0.893. In the case of CCGUAAGCUGUCUCUUUGUTT against Pla2g4c, the z-score is reported as inactive: -2.33. With GCGAAUCAGCACUUAUGGATT against Cd2ap the z-score was inactive: 0.337. For GGACAGCCAAAUAGAAUAATT against Atrn, the z-score was inactive: -1.02. With “GGAAAAUGACAGCGAAGAGTT against Hel308-pending” the z-score was inactive: -2.48. For GGUCAGAUUAUGCUUUAGATT against Mrgpre, the z-score was inactive: 0.192. In the case of GCUGCUUGCAUGCGUUACUTT against Btbd14a, the z-score is reported as inactive: 0.891. In the case of GGUCAAUCACUUAUAAUGUTT against Olfr771, the z-score is reported as inactive: 0.252. In the case of GGCCAAGUGCUCACAGUUCTT against Arpc1b, the z-score is reported as inactive: 0.178. In the case of GGCUGAAGAACCCUCCAAUTT against BC033606, the z-score is reported as inactive: -0.647. With “GGUGACAAUAAAUUUGGAUTT against 2310076O21Rik” the z-score was inactive: -0.578. In the case of GCUCCGAUAUCAUUUGUUUTT against Crh, the z-score is reported as inactive: 1.58. In the case of GGCUGUCUGUUAAGAUUAATT against Olfr181, the z-score is reported as inactive: -0.433. With GGGAGACUUUCCAUUUGGUTT against Ap3s1 the z-score was inactive: -1.77. In the case of CCGAGCAGGAUUGCAUAUATT against Cspg5, the z-score is reported as inactive: -0.858. For GGUCAUGAUGGUAUUGUGCTT against Traf7, the z-score was inactive: 0.636. In the case of GCUCUGAUUCAGCAAGAGUTT against Rshl1, the z-score is reported as inactive: 0.444. With GCAGAGGGUGCUUGUAACCTT against Hp the z-score was inactive: -0.59. With GGAUCAUGUCAUCACAAAATT against Fzd3 the z-score was inactive: 0.968. In the case of GGAAAACAAGCCUAAGUCATT against Zfyve19, the z-score is reported as inactive: -1.58. In the case of CCUAUUAAUAUGGAAAGUGTT against Arcn1, the z-score is reported as inactive: -2.41. In the case of GCUCGAGAGAUCAAUUUAATT against Olfr568, the z-score is reported as inactive: 2.14. In the case of “GCACGACGAGACAUUUUUGTT against 0610038D11Rik”, the z-score is reported as inactive: 0.79. For CGGGAAGCUUUCCUAAACUTT against Serpinb9d, the z-score was inactive: -1.09. For UAAGUGUUGUCUUCCUUUUTT against Olfr1360, the z-score was inactive: -0.809. With GGGUUUGACCUGAUUUCUCTT against Col9a1 the z-score was inactive: 0.699. With GAUUUUUCAAAUCUUUGGCTT against Plac8 the z-score was inactive: 0.557. With GGAACUAGAACCAGAGUCCTT against Mrpl54 the z-score was inactive: 0.631. With GGUGAUGGAAGAAAAUACCTT against Pcdhb22 the z-score was inactive: 1.63. In the case of “GGGCUCUAAAAAGGAUUUUTT against A330064G03Rik”, the z-score is reported as inactive: -2.19. In the case of “GGUCUUACAGUGGAGAGCATT against 9630044M06”, the z-score is reported as inactive: 0.883. In the case of GGCCGAUGAUAAAAAUGAATT against Cnga1, the z-score is reported as inactive: -0.469. In the case of GGAAUCAUCGGUUCUGUGUTT against Cldn16, the z-score is reported as inactive: -2.11. With GGCAGAUGUCAUCAAUGCUTT against Sas the z-score was inactive: 0.555. In the case of “GGAAGAUGAUUUCUCCUUCTT against 2900026A02Rik”, the z-score is reported as inactive: -0.106. In the case of GCUGUACGUGCUUGGUUAGTT against Isl1, the z-score is reported as inactive: 0.371. In the case of GGCCAUCUUCCUGUUUGUGTT against Gabarapl2, the z-score is reported as inactive: 1.15. With “CCAAUAGCUAGUCUCCUAGTT against 6430701C03Rik” the z-score was inactive: 2.43. With CGUAGUUUUACAGAUCACUTT against Odz3 the z-score was inactive: -0.666. In the case of “GGACUAUGCCAAUGUCAGATT against 1700065O13Rik”, the z-score is reported as inactive: 0.259. In the case of “GGUGGCACAUAAGAAAUCCTT against Kiaa0298-hp”, the z-score is reported as inactive: 2.01. With GGUCAGUUCCUAGCUUCACTT against Gucy1b2 the z-score was inactive: 0.744. In the case of GCUCUAAUCAAUCAGUUAATT against Lnpep, the z-score is reported as inactive: 0.126. With CGGCAUUUGCUAAUGGUCGTT against Actl6a the z-score was inactive: 1.53. For GGAUCCCAGAUUGAAAACUTT against Rnf5, the z-score was inactive: 1.17. With “GUCCCAAGAGGCUCAUUCUTT against 2300006N05Rik” the z-score was inactive: -0.814. In the case of GGUGUUGGAAACAAUCAGATT against Cd59a, the z-score is reported as inactive: 0.22. For “GGAUAUGUUGCUCACAUAATT against 9830132L24”, the z-score was inactive: -0.216. With GGAAAAGAUGAAGACUACATT against Ifnar2 the z-score was inactive: -1.47. With GACUCUGCUUUUUGUGUUATT against Olfr958 the z-score was inactive: 1.71. In the case of GCGGGAACCAUUUUUGUGATT against Cdh11, the z-score is reported as inactive: -0.345. For GGAAGAUCCCAACAGUUUGTT against Prss11, the z-score was inactive: -0.102. In the case of “GGCAGGAAGGACAAUCAGUTT against D130067I03Rik”, the z-score is reported as inactive: 0.694. With GGACUGAAAGAAAUCAGAATT against Asxl2 the z-score was inactive: 0.959. For GGACUUCAACAACUGCUCUTT against Rpo1-4, the z-score was inactive: -1.89. With GGGCAACUUCCUCAGACAUTT against Cav2 the z-score was inactive: -1.35. In the case of “GGCCCUAAUUUCAGUAAUATT against D430024F16Rik”, the z-score is reported as inactive: -1.32. With GGGAAACAAGCAUCUUCUGTT against Bmp5 the z-score was inactive: -1.18. With “GGAAUAAAGUGUUGUGUCATT against 9230106L14Rik” the z-score was inactive: 0.506.
